Measurements published in patent publication US8809377B2, “Deubiquitinase inhibitors and methods for use of the same” (The Regents of the University of Michigan, priority 2010, dated 2014).
For part of these data: The name of at least one read-out is uncertain. For part of these data: For at least one compound, name, drawing or mass did not settle the structure.

Experiments:
Murine norovirus (MNV) = experiment: Murine norovirus plaque assay; format: cell-based; conditions: murine macrophages (RAW264.7 or bone marrow derived), 5 μM, 30 min pre-treatment, 8-12 hr
Protocol: Viral titers were determined by plaque assay.
Cells were treated with IFN-β as a positive anti-viral control.

USP9X = experiment: Western / HA-UbVS labeling of USP9X in intact cells or lysates; format: cell-based; conditions: CML cells treated for 4 hours

SMILES: CCCC(NC(=O)/C(C#N)=C/c1cccc(Br)n1)c1ccc(OCCN(CC)CC)cc1 (stereo not drawn) [Compound 33, (E)-3-(6-Bromopyridin-2-yl)-2-cyano-N-(1-(4-(2-(diethylamino)ethoxy)phenyl)butyl)acrylamide]
- Log inhibition by plaque assay (Murine norovirus (MNV)): 2 log

SMILES: CCC[C@H](NC(=O)/C(C#N)=C/c1cccc(Br)n1)c1ccccc1 [WP1130]
- Log inhibition by plaque assay (Murine norovirus (MNV); listed as HWP1130): 2 log

SMILES: Cc1nc(Nc2ncc(C(=O)Nc3c(C)cccc3Cl)s2)cc(N2CCN(CCO)CC2)n1 [dasatinib, reference compound]
- Usp9x activity (HA-UbVs labeling) (USP9X): none of the kinase inhibitors examined had significant Usp9x inhibitory activity
